This is one part of the list.

Protein sequences, listed by entry. Tags and fused reporters are not part of them.
UniProt Q0JBA9, entry or part of it: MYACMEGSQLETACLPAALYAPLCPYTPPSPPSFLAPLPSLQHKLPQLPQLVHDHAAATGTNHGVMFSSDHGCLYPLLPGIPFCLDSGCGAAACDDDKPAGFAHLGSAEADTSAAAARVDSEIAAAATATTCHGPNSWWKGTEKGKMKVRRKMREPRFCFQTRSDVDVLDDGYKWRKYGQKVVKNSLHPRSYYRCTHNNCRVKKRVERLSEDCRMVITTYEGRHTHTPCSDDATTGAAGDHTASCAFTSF

This assay has as its target OsWRKY34 (Oryza sativa, UniProt Q0JBA9 1-250). The assay is described as follows: protein-binding microarray (RPBM); PBS, 2% BSA, 51.3 ng/ul salmon testes DNA, 50 uM zinc acetate, 200 nM TF, 25 C, 1 h; high values mean tight binding. To be noted: protein: recombinant; tags: N-terminal polyhistidine and DsRed monomer fusion (pET32a); label: CyDye5-dUTP incorporated in the synthesized complementary strand; 3' TTTTT single-stranded linker to array surface; dsDNA, one strand shown. A digest of the protocol:
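A custom Agilent array was converted to double-stranded form by primer extension with Cy5-dUTP and blocked with 2% BSA. Protein at 200 nM in PBS with 2% BSA, salmon testes DNA and 50 µM zinc acetate was applied for 1 h at 25 °C, followed by washing. The proteins were polyhistidine–DsRed N-terminal fusions of transcription factors, expressed in E. coli BL21-CodonPlus and Ni–NTA-purified. The binding signal is per-feature fluorescence intensity (arbitrary units) from an Axon 4000B scanner.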
Regarding “GAGGGAGGTAATTCGTCCGGTTTGCATAGTTAGGGGTGAACGGAGTCACCTAGTGCAG”, the binding signal was 9340 fluorescence intensity (a.u.).
With “ACTTCGGTTCTTCCCTCTTCCCATTTCCGCGCGGCGCAACCGGAGTCACCTAGTGCAG” the figure was 8460 fluorescence intensity (a.u.).
With “ACACGGTTACTTATACTACCCTCATTGATGGTTATTGCAACGGAGTCACCTAGTGCAG” the figure was 9030 fluorescence intensity (a.u.).
In the case of “CTGTAGATGTTGTTGACCTGACTTGATGTTGTGCTTGTTACGGAGTCACCTAGTGCAG”, the binding signal is 8420 fluorescence intensity (a.u.).
With “TGTATTCTAAAGTTCGTGTTATCTGTAACCCGCTGCTCTTCGGAGTCACCTAGTGCAG”, the binding signal is 8580 fluorescence intensity (a.u.).
With “GAAGCTTCGGGAGTGGTGGTGGGTTGCGGCCGTGCGGCTCCGGAGTCACCTAGTGCAG” the figure was 10900 fluorescence intensity (a.u.).
With “CTTTTTAGCATATGTTTGACCGTTTGTCTTATTTAAAATACGGAGTCACCTAGTGCAG” the figure was 9700 fluorescence intensity (a.u.).
With “CAGCATCCATGTCTCCATATAACTTGCAAGTACTTTAATCCGGAGTCACCTAGTGCAG” the figure was 8080 fluorescence intensity (a.u.).
In the case of “CACTGCTGAACATCTTGAATGATTTGTTTTCAGGGACCTTCGGAGTCACCTAGTGCAG”, the binding signal was 8870 fluorescence intensity (a.u.).
With “CTACTGTTTCTGTTTCTGTTTCTGTGCAAATCAAATTCAACGGAGTCACCTAGTGCAG”, the binding signal is 14300 fluorescence intensity (a.u.).
For the sequence “GGAGGGAGTAATAGTCAGTGATTGGCTGGGTGGATAGAATCGGAGTCACCTAGTGCAG”, the binding signal is 9120 fluorescence intensity (a.u.).
With “CTGGGTACTCGGTATTGTTCTTTATGCAAGCTTAGCTTTCCGGAGTCACCTAGTGCAG” the figure was 8770 fluorescence intensity (a.u.).
With “CATCTTCACAGTCACACACCGAACGCGACAAGCAGACCGACGGAGTCACCTAGTGCAG” the figure was 8750 fluorescence intensity (a.u.); with “TATTATTCAGGTTTTTGGACACACTACTACCCCTTGTTTTCGGAGTCACCTAGTGCAG”, 11300 fluorescence intensity (a.u.); with “CATCTCCTCCCGCTCCCGCTCGCTCGCGCCATTTTCCAGCCGGAGTCACCTAGTGCAG”, 8960 fluorescence intensity (a.u.).
With “CACCATATCATTCCAGATGTACTGTAATCATTCTCGGGTTCGGAGTCACCTAGTGCAG” the figure was 8960 fluorescence intensity (a.u.); with “CTGCCTAAACCCAGCTCCATCTCTCTAGTTCATTTTGTGACGGAGTCACCTAGTGCAG”, 9340 fluorescence intensity (a.u.).
On to “GGTATTGAACCAATGTTTTGCCATACAGCTGATCCGAAAACGGAGTCACCTAGTGCAG”, for which the binding signal was 8370 fluorescence intensity (a.u.).
With “TTCTTCTAGAGGAGGAGGAGGCGGCGGGGCGGCGGGCGAGCGGAGTCACCTAGTGCAG” the figure was 17300 fluorescence intensity (a.u.); with “GATCCACCTTTACCGCAAGGATTCTACGGCAACGGATTCGCGGAGTCACCTAGTGCAG”, 8820 fluorescence intensity (a.u.); with “GCCTATCCACAACATCGTCGCAGGCCTTCTTTTTCCCTCGCGGAGTCACCTAGTGCAG”, 8320 fluorescence intensity (a.u.).
As for “GGGATACTTGGTTAATTATAGTCAGATCAATTTTATTTTCCGGAGTCACCTAGTGCAG”, the binding signal was 9550 fluorescence intensity (a.u.).
For “TGTGCATTTATTACGCCTATATTTTGTTCTTTTTTTTTTCCGGAGTCACCTAGTGCAG”, the binding signal is 12900 fluorescence intensity (a.u.).
“AATGCTGTGAACACCTGGTTGGTTGGGTGTTTTTGCTTCTCGGAGTCACCTAGTGCAG”: the binding signal was 9590 fluorescence intensity (a.u.).
With “GTCCATTGGCAAATTACCACGTTTATGAAGTGTTTTCCTCCGGAGTCACCTAGTGCAG” the figure was 9210 fluorescence intensity (a.u.); with “AACTTCGAAGAAATTTCGCAAACGGTTCACACTCCACGAACGGAGTCACCTAGTGCAG”, 8230 fluorescence intensity (a.u.); with “TGCATCATTGACTCATCATCCATGCATCCAATTCCATTTACGGAGTCACCTAGTGCAG”, 10500 fluorescence intensity (a.u.).
With “TTGTCAAATGCTGTTGTGCCAGAAGATGTACCGTTCAGTCCGGAGTCACCTAGTGCAG” the figure was 8490 fluorescence intensity (a.u.).
With “ATCTCAAACCCCACACATTCCCCACAATCCGCTCGCCATGCGGAGTCACCTAGTGCAG” the figure was 8540 fluorescence intensity (a.u.).
“GCCTCCACCAATCTCCTGCAGCCCTATTGTTGCCTCCTTGCGGAGTCACCTAGTGCAG”: the binding signal was 13900 fluorescence intensity (a.u.).
With “TGCAGAACCTCTCTCCCTTCTTGGTTCTTCTTCTCATCTCCGGAGTCACCTAGTGCAG” the figure was 9490 fluorescence intensity (a.u.); with “GGCTACTCAGAAAGTCTTACCACGCAAAAGATTAATCATACGGAGTCACCTAGTGCAG”, 8100 fluorescence intensity (a.u.).
Consider “TTTAATTTGTTTTTTTCGTTGTAACATGTAGAAATTAAATCGGAGTCACCTAGTGCAG”, for which the binding signal was 8750 fluorescence intensity (a.u.).
With “CTCTTTTCTTTTGCTAGTCATACGTGCATATATAACCAAACGGAGTCACCTAGTGCAG”, the binding signal is 8120 fluorescence intensity (a.u.).
For “TCGCAGCGCAGGCCGCTGCTTCTTCTTCTTCTTCCTTCCACGGAGTCACCTAGTGCAG”, the binding signal was 8310 fluorescence intensity (a.u.).
As for “ACCTCCCACGGATCGCTCCATTTTCACCTCCGCGCCCAAACGGAGTCACCTAGTGCAG”, the binding signal was 9570 fluorescence intensity (a.u.).
With “TTATCTGTTTGGTCATTTTCTTTGCATGTGGTTTGGTTTTCGGAGTCACCTAGTGCAG” the figure was 14100 fluorescence intensity (a.u.).
With “CATACGCTCCTTTATTTGTTCACACTTATACATCAATAAGCGGAGTCACCTAGTGCAG” the figure was 8560 fluorescence intensity (a.u.).
With “ATGTTTGACTCTACATTCTCTCTCTCTTCTTTTTGTTTAACGGAGTCACCTAGTGCAG” the figure was 11700 fluorescence intensity (a.u.); with “TCGGCCTGCTCCCGCCCGTCGCCGTCCACTCCTCAACCGCCGGAGTCACCTAGTGCAG”, 11800 fluorescence intensity (a.u.); with “GGTTGCTGACAGGTGGTCCCGCGGGGTGGATGGGGCCCACCGGAGTCACCTAGTGCAG”, 9040 fluorescence intensity (a.u.).
As for “CTCTCTTTTTTTTTTTGTTGTTGAACTAGTTGTGTGCATTCGGAGTCACCTAGTGCAG”, the binding signal was 9300 fluorescence intensity (a.u.).
With “TCGTCATCAGTTCATCGCTCGTGTCTGCTCTGTTTAGACACGGAGTCACCTAGTGCAG” the figure was 8310 fluorescence intensity (a.u.).
With “ACATTGGGTTGGAGTGGATTATTTTTTTCCTTTGTTTTCCCGGAGTCACCTAGTGCAG”, the binding signal was 14200 fluorescence intensity (a.u.).
With “TTAGTTCGCGAAAAGAAAATTTTTAGGTGTCACATTTTTTCGGAGTCACCTAGTGCAG” the figure was 9420 fluorescence intensity (a.u.); with “GCTAACATGGCTCGTTGACCCACCCAACCTGCTGACTCATCGGAGTCACCTAGTGCAG”, 10600 fluorescence intensity (a.u.); with “CACTCAACCTAACTGTTGAACGGTCCTGTTCTGGCCAACGCGGAGTCACCTAGTGCAG”, 8890 fluorescence intensity (a.u.).
With “CTATTACCTGAACATCGCGCATTTGCCATCTAATGCACCACGGAGTCACCTAGTGCAG” the figure was 8160 fluorescence intensity (a.u.); with “CGAGGGTTTGGGAGTCGGGGAATTCGGGGTTTGGGGCCGCCGGAGTCACCTAGTGCAG”, 26700 fluorescence intensity (a.u.).
With “GCATCTTGTTAAGTTGTGTGACTATGTTGCTTTGTTTTCTCGGAGTCACCTAGTGCAG” the figure was 11800 fluorescence intensity (a.u.); with “CAGATATGGATGGGTTGGTTTCCGATGTTTGGGAGACAAACGGAGTCACCTAGTGCAG”, 9850 fluorescence intensity (a.u.); with “ATCCTTAAGGGGTCTTTTTTTTTGCAATTTTTCACTTAATCGGAGTCACCTAGTGCAG”, 8410 fluorescence intensity (a.u.).
“TATGAGCGTTTGACCATTCGTCTTATTCAAAATTTTTGTGCGGAGTCACCTAGTGCAG”: the binding signal was 8200 fluorescence intensity (a.u.).
With “ATATATGATTTGGACTTGCTCTAACTATTTTGTTTGAACACGGAGTCACCTAGTGCAG” the figure was 8450 fluorescence intensity (a.u.).

The values are drawn from PMC7819943, “Rice protein-binding microarrays: a tool to detect cis-acting elements near promoter regions in rice”.
